Assay results from paper PMC6588571.
No constants are given. Whether binding was seen depends on the method and setting. For part of these data: Binding seen in cells or lysates may run through a third protein. Some entries that bind do so weakly or less than the wild type. Tags and fused reporters may be left off the sequences shown.

T1: C-terminally TAP-tagged Tsr1 (S. cerevisiae) (UniProt Q07381)
T1 sequence: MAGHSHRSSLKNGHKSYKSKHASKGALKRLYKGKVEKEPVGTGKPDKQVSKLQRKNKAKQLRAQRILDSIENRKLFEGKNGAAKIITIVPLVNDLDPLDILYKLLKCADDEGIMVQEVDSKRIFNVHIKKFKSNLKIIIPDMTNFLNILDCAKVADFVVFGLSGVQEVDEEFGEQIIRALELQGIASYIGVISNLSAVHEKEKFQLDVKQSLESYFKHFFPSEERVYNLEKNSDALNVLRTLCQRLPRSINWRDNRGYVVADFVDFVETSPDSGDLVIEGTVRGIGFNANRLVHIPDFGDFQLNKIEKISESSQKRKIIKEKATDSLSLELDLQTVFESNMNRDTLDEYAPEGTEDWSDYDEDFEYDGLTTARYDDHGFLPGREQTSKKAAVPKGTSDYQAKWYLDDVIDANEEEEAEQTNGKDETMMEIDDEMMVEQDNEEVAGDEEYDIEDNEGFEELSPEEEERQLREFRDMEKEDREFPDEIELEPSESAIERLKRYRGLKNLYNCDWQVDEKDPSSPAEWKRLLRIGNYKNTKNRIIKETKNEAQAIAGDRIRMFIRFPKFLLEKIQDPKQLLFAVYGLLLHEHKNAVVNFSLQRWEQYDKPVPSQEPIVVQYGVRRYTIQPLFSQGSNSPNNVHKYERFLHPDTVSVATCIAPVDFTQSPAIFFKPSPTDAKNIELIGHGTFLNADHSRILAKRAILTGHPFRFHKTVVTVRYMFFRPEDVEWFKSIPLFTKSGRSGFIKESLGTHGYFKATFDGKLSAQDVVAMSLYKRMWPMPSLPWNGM


Molecular target: T1, C-terminally TAP-tagged Tsr1 (S. cerevisiae)
Assay: cryo-EM structure; pre-40S particles from rps20Δloop cells purified via Tsr1-TAP (lysis buffer with 5 mM MgCl2) and a 10–30% sucrose gradient; single particle analysis, classes C1-S20Δloop (3.47 Å) and C2-S20Δloop (3.79 Å); the partners stand in one ribonucleoprotein particle

binding | Binder
binds | Enp1 (endogenous) (protein, UniProt P38333 1-483) MARASSTKARKQRHDPLLKDLDAAQGTLKKINKKKLAQNDAANHDAANEEDGYIDSKASRKILQLAKEQQDEIEGEELAESERNKQFEARFTTMSYDDEDEDEDEDEEAFGEDISDFEPEGDYKEEEEIVEIDEEDAAMFEQYFKKSDDFNSLSGSYNLADKIMASIREKESQVEDMQDDEPLANEQNTSRGNISSGLKSGEGVALPEKVIKAYTTVGSILKTWTHGKLPKLFKVIPSLRNWQDVIYVTNPEEWSPHVVYEATKLFVSNLTAKESQKFINLILLERFRDNIETSEDHSLNYHIYRAVKKSLYKPSAFFKGFLFPLVETGCNVREATIAGSVLAKVSVPALHSSAALSYLLRLPFSPPTTVFIKILLDKKYALPYQTVDDCVYYFMRFRILDDGSNGEDATRVLPVIWHKAFLTFAQRYKNDITQDQRDFLLETVRQRGHKDIGPEIRRELLAGASREFVDPQEANDDLMIDVN

Molecular target: T1, C-terminally TAP-tagged Tsr1 (S. cerevisiae)
Assay: co-IP; Tsr1-TAP pre-40S particles from yeast lysate bound to IgG beads, eluted with TEV protease, western blotting; wild-type, rps20Δloop, rio2.D253A and ltv1 phosphomutant strains; in the ATP assays the bound particles were incubated with or without 1 mM ATP for 30 min at 4 °C (50 mM TRIS pH 7.5, 100 mM NaCl, 5 mM MgCl2, 0.075% NP-40, 1 mM DTT) and washed before elution

binding | Binder
binds | N-terminally HA-tagged Rps20.R68/K69>E (protein, UniProt P38701 1-121) MSDFQKEKVEEQEQQQQQIIKIRITLTSTKVKQLENVSSNIVKNAEQHNLVKKGPVRLPTKVLKISTEETPNGEGSKTWETYEMRIHKRYIDLEAPVQIVKRITQITIEPGVDVEVVVASN
binds | N-terminally HA-tagged Rps20.D113/E115>K (protein, UniProt P38701 1-121) MSDFQKEKVEEQEQQQQQIIKIRITLTSTKVKQLENVSSNIVKNAEQHNLVKKGPVRLPTKVLKISTRKTPNGEGSKTWETYEMRIHKRYIDLEAPVQIVKRITQITIEPGVKVKVVVASN
binds | N-terminally HA-tagged Rps20Δloop (protein, UniProt P38701) MSDFQKEKVEEQEQQQQQIIKIRITLTSTKVKQLENVSSNIVKNAEQHNLVKKGPVRLPTKVLKISTWETYEMRIHKRYIDLEAPVQIVKRITQITIEPGVDVEVVVASN
binds | Ltv1 (wild type, in yeast cells) (protein, UniProt P34078 1-463) MSKKFSSKNSQRYVVVHRPHDDPSFYDTDASAHVLVPVSNPNKTSPEADLRKKDVSSTKPKGRRAHVGEAALYGINFDDSEYDYTQHLKPIGLDPENSIFIASKGNEQKVEKKNIEDLFIEPKYRRDEIEKDDALPVFQRGMAKPEYLLHQQDTTDEIRGFKPDMNPALREVLEALEDEAYVVNDDVVVEDISKKTQLQGDNYGEEEKEDDIFAQLLGSGEAKDEDEFEDEFDEWDIDNVENFEDENYVKEMAQFDNIENLEDLENIDYQADVRRFQKDNSILEKHNSDDEFSNAGLDSVNPSEEEDVLGELPSIQDKSKTGKKKRKSRQKKGAMSDVSGFSMSSSAIARTETMTVLDDQYDQIINGYENYEEELEEDEEQNYQPFDMSAERSDFESMLDDFLDNYELESGGRKLAKKDKEIERLKEAADEVSKGKLSQRRNRERQEKKKLEKVTNTLSSLKF
binds | Ltv1(S336/S339/S342>A) phosphomutant (protein, UniProt P34078 1-463) MSKKFSSKNSQRYVVVHRPHDDPSFYDTDASAHVLVPVSNPNKTSPEADLRKKDVSSTKPKGRRAHVGEAALYGINFDDSEYDYTQHLKPIGLDPENSIFIASKGNEQKVEKKNIEDLFIEPKYRRDEIEKDDALPVFQRGMAKPEYLLHQQDTTDEIRGFKPDMNPALREVLEALEDEAYVVNDDVVVEDISKKTQLQGDNYGEEEKEDDIFAQLLGSGEAKDEDEFEDEFDEWDIDNVENFEDENYVKEMAQFDNIENLEDLENIDYQADVRRFQKDNSILEKHNSDDEFSNAGLDSVNPSEEEDVLGELPSIQDKSKTGKKKRKSRQKKGAMADVAGFAMSSSAIARTETMTVLDDQYDQIINGYENYEEELEEDEEQNYQPFDMSAERSDFESMLDDFLDNYELESGGRKLAKKDKEIERLKEAADEVSKGKLSQRRNRERQEKKKLEKVTNTLSSLKF
